PubChem BioAssay AID1259405, NCATS – 2018

Assay: 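Knock-downs that lift recombinant protein yield in hamster ovary cells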 (primary screen)
Cell system: Chinese hamster CHO-K1 ovary cells with stable secreted eGFP expression
Reagents: single siRNA against mouse genes, 0.8 pmol siRNA per well (2 µl of 400 nM stock)
Duration: 3 days
Read-out: 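Percent of the per-plate non-targeting control median for intracellular GFP per well by laser scanning cytometry and for cell viability by ATP luminescence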
Reading the numbers: GFP, % of control: higher = more GFP per well, higher productivity; viability (ATP), % of control: higher = more viable cells (more ATP)
Call rule: 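Called active when intracellular GFP, relative to negative control, is at or above 120%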
Shown is a random part of about 50,000 reagents. In the full data, about 4,000 (8%) are marked active. 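Mouse siRNA library applied to hamster cells; one well for each siRNA.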 A number with no mark means an inactive call. Reagents against one gene are numbered here. No sequences are given here.

gene knocked down | reagent no. | GFP, % of control | viability (ATP), % of control
Thada | 1 | 98.3 | 81.1
Thada | 2 | 96.5 | 100
Thada | 3 | 78.8 | 64.5
Cep68 | 1 | 58.3 | 38.3
Cep68 | 2 | 97.9 | 110
Cep68 | 3 | 90.9 | 122
Pmch | 1 | 72.4 | 81.5
Pmch | 2 | 85 | 70.5
Pmch | 3 | 58 | 76.3
Dnah5 | 1 | 94.6 | 77.6
Dnah5 | 2 | 60 | 82.4
Aplp1 | 1 | 76.6 | 58.8
Aplp1 | 2 | 79.8 | 95.8
Aplp1 | 3 | 93.5 | 99.3
Togaram1 | 1 | 120 | 61.3
Togaram1 | 2 | 69.3 | 71.6
Togaram1 | 3 | 92.2 | 81.3
Id4 | 1 | 150 (active) | 99
Id4 | 2 | 85.5 | 67.2
Id4 | 3 | 105 | 98.9
Rprd1a | 1 | 46.4 | 36.6
Rprd1a | 2 | 69.7 | 82.8
Rprd1a | 3 | 97.4 | 109
Bcap31 | 1 | 93.9 | 78.1
Bcap31 | 2 | 68.9 | 73.9
Bcap31 | 3 | 98.9 | 75.9
Alx1 | 1 | 115 | 96
Alx1 | 2 | 28.1 | 44.8
Alx1 | 3 | 54.5 | 60
BC024139 | 1 | 55.2 | 99.3
BC024139 | 2 | 79.5 | 56.2
BC024139 | 3 | 212 (active) | 147
Fpr-rs6 | 1 | 54.7 | 56.9
Fpr-rs6 | 2 | 77.4 | 92.4
Fpr-rs6 | 3 | 74.1 | 89.4
Tas2r117 | 1 | 73.8 | 107
Tas2r117 | 2 | 85.8 | 64.5
Tas2r117 | 3 | 0.331 | 195
Ift140 | 1 | 94.6 | 65.1
Ift140 | 2 | 81.4 | 97.3
Ift140 | 3 | 55.9 | 64.8
Usp27x | 1 | 99.1 | 98.3
Usp27x | 2 | 63.9 | 62.1
Usp27x | 3 | 44.8 | 68.1
Inpp5e | 1 | 62.3 | 48
Inpp5e | 2 | 71.1 | 61.5
Inpp5e | 3 | 86.4 | 93.3
Sytl4 | 1 | 89 | 131
Sytl4 | 2 | 93.5 | 101
C030016D13Rik | 1 | 55.7 | 60.5
C030016D13Rik | 2 | 75.9 | 81.4
C030016D13Rik | 3 | 103 | 98.6
Vmn1r45 | 1 | 72.1 | 76.1
Vmn1r45 | 2 | 35.6 | 20.9
Vmn1r45 | 3 | 68.4 | 77.7
Ticam2 | 1 | 42 | 43.2
Ticam2 | 2 | 77.8 | 65.1
Ticam2 | 3 | 41.9 | 34.5
Sesn2 | 1 | 127 (active) | 77.8
Sesn2 | 2 | 71 | 79.5
Sesn2 | 3 | 44.5 | 61.7
Tnfrsf12a | 1 | 125 (active) | 55.2
Tnfrsf12a | 2 | 74.5 | 123
Tnfrsf12a | 3 | 110 | 99.6
Srsf19 | 1 | 132 (active) | 80
Srsf19 | 2 | 26 | 27.9
Srsf19 | 3 | 101 | 107
Ifit3 | 1 | 66.9 | 82.9
Ifit3 | 2 | 159 (active) | 65.4
Ifit3 | 3 | 52.5 | 89.4
Dennd2b | 1 | 75 | 82.9
Dennd2b | 2 | 74.7 | 101
Dennd2b | 3 | 148 (active) | 89.2
Oplah | 1 | 123 (active) | 127
Oplah | 2 | 86.6 | 64.2
Oplah | 3 | 101 | 74.7
Trafd1 | 1 | 60.4 | 61.4
Trafd1 | 2 | 103 | 94.2
Trafd1 | 3 | 50.6 | 57
Cntn1 | 1 | 63.5 | 57.6
Cntn1 | 2 | 104 | 89.1
Lamtor2 | 1 | 98.9 | 63.2
Lamtor2 | 2 | 101 | 55.9
Lamtor2 | 3 | 70.6 | 57.9

Ordered by “viability (ATP), % of control” (low to high): some entries from above
gene knocked down | reagent no. | GFP, % of control | viability (ATP), % of control
Cep68 | 1 | 58.3 | 38.3
Thada | 3 | 78.8 | 64.5
Pmch | 2 | 85 | 70.5
Pmch | 3 | 58 | 76.3
Pmch | 1 | 72.4 | 81.5
Thada | 2 | 96.5 | 100
Cep68 | 2 | 97.9 | 110
Cep68 | 3 | 90.9 | 122
